Reference: article PMC7332966
These are yes or no findings as the source states them, for the method shown. Some binding calls cover weakened binding; strength is not graded here. Sequences can lack the tags named with a protein.

Chains of the proteins cited; added tags and fusions are not shown.
UniProt Q8TAF3: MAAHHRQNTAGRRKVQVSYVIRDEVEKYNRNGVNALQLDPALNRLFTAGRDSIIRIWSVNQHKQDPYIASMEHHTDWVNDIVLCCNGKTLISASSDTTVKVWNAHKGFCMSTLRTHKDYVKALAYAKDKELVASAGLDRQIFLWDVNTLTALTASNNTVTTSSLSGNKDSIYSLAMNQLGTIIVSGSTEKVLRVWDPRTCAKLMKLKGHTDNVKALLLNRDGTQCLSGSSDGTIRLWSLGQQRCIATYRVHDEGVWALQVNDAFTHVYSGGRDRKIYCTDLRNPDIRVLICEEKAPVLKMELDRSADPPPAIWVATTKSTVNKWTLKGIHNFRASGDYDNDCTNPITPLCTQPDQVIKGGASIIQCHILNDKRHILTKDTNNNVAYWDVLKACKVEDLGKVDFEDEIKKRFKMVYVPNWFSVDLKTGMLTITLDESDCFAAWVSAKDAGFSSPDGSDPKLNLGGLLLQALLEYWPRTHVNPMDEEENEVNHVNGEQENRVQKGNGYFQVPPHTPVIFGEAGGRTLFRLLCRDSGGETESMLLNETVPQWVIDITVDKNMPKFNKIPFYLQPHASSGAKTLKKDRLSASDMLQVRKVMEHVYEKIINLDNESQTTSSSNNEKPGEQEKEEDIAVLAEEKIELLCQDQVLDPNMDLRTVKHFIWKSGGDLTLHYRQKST

Target: T1, His6-TEV-tagged USP1 (G670A/G671A mutated auto-cleavage site) (human) (UniProt O94782)
T1 sequence: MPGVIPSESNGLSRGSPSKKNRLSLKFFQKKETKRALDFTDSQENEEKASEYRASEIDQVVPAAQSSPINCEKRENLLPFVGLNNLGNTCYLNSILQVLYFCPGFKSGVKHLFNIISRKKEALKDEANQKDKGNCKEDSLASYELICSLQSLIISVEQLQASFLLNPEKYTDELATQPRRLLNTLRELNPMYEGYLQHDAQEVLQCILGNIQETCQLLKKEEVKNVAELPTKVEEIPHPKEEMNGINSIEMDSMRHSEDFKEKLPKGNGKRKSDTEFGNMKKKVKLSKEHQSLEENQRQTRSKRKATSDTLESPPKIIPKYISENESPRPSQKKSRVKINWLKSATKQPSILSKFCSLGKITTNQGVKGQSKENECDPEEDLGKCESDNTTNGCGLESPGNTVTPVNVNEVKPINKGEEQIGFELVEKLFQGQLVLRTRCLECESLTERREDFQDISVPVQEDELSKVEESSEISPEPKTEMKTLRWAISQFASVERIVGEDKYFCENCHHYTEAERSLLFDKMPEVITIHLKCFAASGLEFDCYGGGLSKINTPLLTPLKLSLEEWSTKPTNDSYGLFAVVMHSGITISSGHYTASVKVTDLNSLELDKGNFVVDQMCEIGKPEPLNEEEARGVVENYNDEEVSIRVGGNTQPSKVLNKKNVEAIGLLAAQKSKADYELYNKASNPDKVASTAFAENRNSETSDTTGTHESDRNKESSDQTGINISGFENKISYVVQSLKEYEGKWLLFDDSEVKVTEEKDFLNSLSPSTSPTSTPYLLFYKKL
Assay: co-purification (Ni-NTA, anion exchange, gel filtration); USP1 and UAF1 co-expressed in Sf21 cells; complex bound to Ni-NTA through His6-TEV-USP1, ResourceQ, TEV cleavage, flow-through of Ni-NTA, Superdex 200 Increase in 20 mM Tris pH 8.0, 150 mM NaCl, 5% glycerol, 5 mM DTT; 4°C

Q: UAF1 (from UniProt Q8TAF3 1-677) was tested. Which binding did it give?
A: binds
